Source: PMC11663792
These are yes or no findings as the source states them, for the method shown. In cells and extracts the contact can be indirect. Some results given as binding are weak or reduced against the parent protein; the word gives no strength.

By UniProt entry, the sequences of proteins in these tests, tags left out.
UniProt O14980: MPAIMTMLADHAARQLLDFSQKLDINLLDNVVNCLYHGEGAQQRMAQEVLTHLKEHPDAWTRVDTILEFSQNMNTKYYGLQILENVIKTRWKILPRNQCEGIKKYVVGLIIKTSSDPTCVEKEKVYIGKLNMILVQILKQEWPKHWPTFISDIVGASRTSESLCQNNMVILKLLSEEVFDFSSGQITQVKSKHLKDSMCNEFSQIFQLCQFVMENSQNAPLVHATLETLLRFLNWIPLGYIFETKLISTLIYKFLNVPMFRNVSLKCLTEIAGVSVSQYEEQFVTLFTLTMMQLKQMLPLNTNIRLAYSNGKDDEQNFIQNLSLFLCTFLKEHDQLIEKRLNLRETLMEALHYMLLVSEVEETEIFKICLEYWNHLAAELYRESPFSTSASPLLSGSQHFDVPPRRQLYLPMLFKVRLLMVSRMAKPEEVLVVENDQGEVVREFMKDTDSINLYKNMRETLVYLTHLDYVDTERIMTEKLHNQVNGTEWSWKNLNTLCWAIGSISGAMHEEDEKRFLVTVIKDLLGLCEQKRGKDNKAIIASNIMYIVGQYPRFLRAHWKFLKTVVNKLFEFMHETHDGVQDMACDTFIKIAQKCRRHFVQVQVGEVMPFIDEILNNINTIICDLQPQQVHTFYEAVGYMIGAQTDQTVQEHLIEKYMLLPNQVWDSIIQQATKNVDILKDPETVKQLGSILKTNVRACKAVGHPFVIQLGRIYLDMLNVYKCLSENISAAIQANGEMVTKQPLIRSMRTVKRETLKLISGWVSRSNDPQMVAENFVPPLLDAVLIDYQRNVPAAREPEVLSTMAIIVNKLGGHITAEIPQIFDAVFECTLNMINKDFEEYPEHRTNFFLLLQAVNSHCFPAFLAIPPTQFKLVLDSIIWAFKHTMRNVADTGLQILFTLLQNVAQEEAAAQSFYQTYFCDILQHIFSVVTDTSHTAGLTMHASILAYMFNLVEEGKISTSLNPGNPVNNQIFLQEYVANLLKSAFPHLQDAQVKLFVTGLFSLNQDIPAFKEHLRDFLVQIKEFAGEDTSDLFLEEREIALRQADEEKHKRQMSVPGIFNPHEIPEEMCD
UniProt O15392: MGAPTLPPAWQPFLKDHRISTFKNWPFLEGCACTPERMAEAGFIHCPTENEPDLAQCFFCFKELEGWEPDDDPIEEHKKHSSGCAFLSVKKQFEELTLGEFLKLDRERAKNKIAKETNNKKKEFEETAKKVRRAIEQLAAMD

Assays:
[1] = target: exportin 1 (XPO1) (human (endogenous in NCI-H23 and H1703)) (UniProt O14980); experiment: co-IP; endogenous proteins in whole-cell lysates of cell lines (A549, NCI-H23, H1703, HBEC, WI-38); antibody or mock IgG, Protein G Agarose, washed with RIPA buffer, immunoblot; some cells treated with sotorasib, KRAS siRNA, NTF2 siRNA, serum, EGF, or overexpressing KRAS-G12C or KRAS-S17N
[2] = target: exportin 1 (XPO1) (human (endogenous in NCI-H23 and H1703)) (UniProt O14980); experiment: condition: only cells treated with selinexor (XPO1 inhibitor); co-IP; whole-cell extract of NCI-H23 cells treated with the XPO1 inhibitor selinexor

survivin (from UniProt O15392 1-142)
binding [1]: binds
binding [2]: no binding
